Measurements reported in paper doi:10.1101/2022.11.10.516020.
These are yes or no findings as the source states them, for the method shown. Binding seen in cells or lysates may run through a third protein. A result given as binding can be weak or reduced; the word gives no strength.

Molecular target: cofilin (mouse (endogenous in retina))
Assay: co-IP

binding: binds
B1: retinal specific isoform of RPGR (retinitis pigmentosa GTPase regulator) (protein, UniProt Q9R0X5-5 1-1305)
chain: MAESESLVPDTGAVFTFGKTKFAENIPSKFWFKNDIPICLSCGDEHTAIVTGNNKLYMFGSNNWGQLGLGSKAAIIKPTCIKALKPEKVKLAACGRNHTLVSTDTGGVYAAGGNNEGQLGLGDTDDRDTFHQIVFFTPADTIKQLSAGANTSAALTEDGKLFMWGDNSEGQIGLEDKSNVCIPHEVTVGKPISWISCGYYHSAFVTMDGELYTFGEPENGKLGLPNELLMNHRSPQRVLGIPERVIQVACGGGHTVVLTEKVVYAFGLGQFGQLGLGTFLFETSEPKIIERIKDQKICHISCGENHTALMTELGLLYTFGDGRHGKLGLGMENFTNQFFPTLCSNFLRFAVQLIACGGCHMLVFATPRLGTIDEPKFEDVYEPYISTGSFSINDLSPRSSLNRSLSARLRRRERERPPCSASMVGTLPPLEGTSASTSAYFYPSSPPFHLSVNNYPEKSPSESMEPLDSDYFEDKMNKDTETENSSAVDSENFGETNDILNMTHMMTTSSNEKLLDFSPIQKQQNQDTFEKVMESTPCTENEDSYEYEEMSKIKEVTVYKQYLAKGIYMIRPAEILEAFSDEEVGNGLDQVEEPRVFTDGKGLQSKQVGKESDEEIVSEKKTEVMEVADVKKIRESEENSKSDSLFDDLPDKTMNSESEDNKDIAEERRSSEQNMTFDSETELVEEPDSYMECERHSEQDSAEELEQPKLVEYSSEEKDEKDEKDDDEVETENLWYDRNCTEQETENVFRATRFFPKFDLKHDHLSGIPEEQEGPEDSEGNVVVEQVVQAQKENLEFEGDRKEAKAEAPSDVITEKEVSESERESGGEREDRSEGDGDQICEKVSLETEHLQRAQGKQERKKGKDKRARCILDMKEREEDKGWEKGSEGGDKMKRDEGNQEKRKKEMEERDAGDERSEEEEGEEEEPEEGEKEEGGEEEEGTSEDQSREDEGDRQEKEGRREGKGRQEDGREGWKEGEEQEQEEEIEEGEEEEREGEEEGGEEEGEGEGEREEEGEGEEEGEGEEEGEGEEEGEGEEEGEGEEEGEGEEEGEGEEEGEGEEDGEGEEDGEGEEEGEGEEEGEREEDGEGEEDGEGEEEGEGEEEGEGEEEGEGEEEGEGEGEEEGEGEWEGEEEGEGEEEGEGEEEGEGEEEGEGEEEGEGEEEGGEDDEGEELEKKKGDITEEEEEEEEGQEGDEREREEHGSCEDDVEEDKTYDREEGEYKKAIGKVADNESQEDRKQSPKVSKINGSMKYGRHGTYSEKPITNLGKTQPSKMPMESRQLVENGLLGSERFWSDVLPLYLELK
modifications: polyglutamylated (detected using GT335 antibody)
